Experimental data reported in the supplement of paper PMC10849652.
Some of the results follow.

Protein sequences, listed by entry. Tags and fused reporters are not part of them. Lines headed by an entry give the natural chain unless they say otherwise; changes in a name come on top.
UniProt Q96GS6: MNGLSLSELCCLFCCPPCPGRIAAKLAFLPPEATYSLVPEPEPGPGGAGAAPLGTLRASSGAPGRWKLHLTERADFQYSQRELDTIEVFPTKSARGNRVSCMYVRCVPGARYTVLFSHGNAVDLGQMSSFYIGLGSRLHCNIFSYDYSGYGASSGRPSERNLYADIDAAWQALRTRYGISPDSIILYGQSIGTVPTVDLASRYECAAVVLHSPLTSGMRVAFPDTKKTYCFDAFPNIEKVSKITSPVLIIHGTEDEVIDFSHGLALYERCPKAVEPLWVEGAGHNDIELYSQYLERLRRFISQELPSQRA
UniProt P11310: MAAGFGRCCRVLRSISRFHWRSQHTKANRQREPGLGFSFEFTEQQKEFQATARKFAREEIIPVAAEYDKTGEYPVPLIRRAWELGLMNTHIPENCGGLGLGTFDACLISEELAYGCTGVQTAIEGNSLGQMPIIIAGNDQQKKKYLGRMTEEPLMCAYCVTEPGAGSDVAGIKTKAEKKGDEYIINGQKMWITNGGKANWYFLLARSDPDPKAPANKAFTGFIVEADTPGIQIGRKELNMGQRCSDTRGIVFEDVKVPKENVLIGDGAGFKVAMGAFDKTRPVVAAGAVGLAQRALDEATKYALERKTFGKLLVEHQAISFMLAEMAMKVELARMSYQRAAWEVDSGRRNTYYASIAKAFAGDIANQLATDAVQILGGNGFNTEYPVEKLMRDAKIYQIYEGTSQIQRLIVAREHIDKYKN
UniProt P00519, whole entry, looked up: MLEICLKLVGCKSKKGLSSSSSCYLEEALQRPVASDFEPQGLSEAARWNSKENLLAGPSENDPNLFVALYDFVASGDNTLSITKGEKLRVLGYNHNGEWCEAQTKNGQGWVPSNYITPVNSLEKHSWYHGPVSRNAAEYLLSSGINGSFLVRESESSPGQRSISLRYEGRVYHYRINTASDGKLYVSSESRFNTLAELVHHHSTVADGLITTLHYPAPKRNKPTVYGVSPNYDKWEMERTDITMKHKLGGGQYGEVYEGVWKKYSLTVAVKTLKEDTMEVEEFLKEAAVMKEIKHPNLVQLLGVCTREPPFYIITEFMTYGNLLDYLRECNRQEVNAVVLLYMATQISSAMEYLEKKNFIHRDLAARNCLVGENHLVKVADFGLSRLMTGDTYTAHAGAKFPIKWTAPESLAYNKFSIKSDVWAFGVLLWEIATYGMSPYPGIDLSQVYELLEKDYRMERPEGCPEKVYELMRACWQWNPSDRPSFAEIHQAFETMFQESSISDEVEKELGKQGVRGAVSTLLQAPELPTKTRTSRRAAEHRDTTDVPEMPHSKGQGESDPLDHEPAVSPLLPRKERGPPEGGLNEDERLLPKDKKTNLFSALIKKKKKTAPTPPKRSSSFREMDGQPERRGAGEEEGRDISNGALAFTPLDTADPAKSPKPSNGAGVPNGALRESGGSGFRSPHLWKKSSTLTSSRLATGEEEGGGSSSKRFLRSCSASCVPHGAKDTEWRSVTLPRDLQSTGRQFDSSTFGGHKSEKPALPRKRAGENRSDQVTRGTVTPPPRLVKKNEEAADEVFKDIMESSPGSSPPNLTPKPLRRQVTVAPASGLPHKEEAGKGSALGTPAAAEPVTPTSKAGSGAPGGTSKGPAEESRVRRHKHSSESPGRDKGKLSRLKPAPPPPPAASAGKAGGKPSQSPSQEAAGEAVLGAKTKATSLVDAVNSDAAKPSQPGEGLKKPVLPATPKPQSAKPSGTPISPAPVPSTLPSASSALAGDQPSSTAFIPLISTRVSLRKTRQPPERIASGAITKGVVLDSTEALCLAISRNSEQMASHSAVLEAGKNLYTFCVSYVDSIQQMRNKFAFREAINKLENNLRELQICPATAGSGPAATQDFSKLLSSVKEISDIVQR
UniProt P53396: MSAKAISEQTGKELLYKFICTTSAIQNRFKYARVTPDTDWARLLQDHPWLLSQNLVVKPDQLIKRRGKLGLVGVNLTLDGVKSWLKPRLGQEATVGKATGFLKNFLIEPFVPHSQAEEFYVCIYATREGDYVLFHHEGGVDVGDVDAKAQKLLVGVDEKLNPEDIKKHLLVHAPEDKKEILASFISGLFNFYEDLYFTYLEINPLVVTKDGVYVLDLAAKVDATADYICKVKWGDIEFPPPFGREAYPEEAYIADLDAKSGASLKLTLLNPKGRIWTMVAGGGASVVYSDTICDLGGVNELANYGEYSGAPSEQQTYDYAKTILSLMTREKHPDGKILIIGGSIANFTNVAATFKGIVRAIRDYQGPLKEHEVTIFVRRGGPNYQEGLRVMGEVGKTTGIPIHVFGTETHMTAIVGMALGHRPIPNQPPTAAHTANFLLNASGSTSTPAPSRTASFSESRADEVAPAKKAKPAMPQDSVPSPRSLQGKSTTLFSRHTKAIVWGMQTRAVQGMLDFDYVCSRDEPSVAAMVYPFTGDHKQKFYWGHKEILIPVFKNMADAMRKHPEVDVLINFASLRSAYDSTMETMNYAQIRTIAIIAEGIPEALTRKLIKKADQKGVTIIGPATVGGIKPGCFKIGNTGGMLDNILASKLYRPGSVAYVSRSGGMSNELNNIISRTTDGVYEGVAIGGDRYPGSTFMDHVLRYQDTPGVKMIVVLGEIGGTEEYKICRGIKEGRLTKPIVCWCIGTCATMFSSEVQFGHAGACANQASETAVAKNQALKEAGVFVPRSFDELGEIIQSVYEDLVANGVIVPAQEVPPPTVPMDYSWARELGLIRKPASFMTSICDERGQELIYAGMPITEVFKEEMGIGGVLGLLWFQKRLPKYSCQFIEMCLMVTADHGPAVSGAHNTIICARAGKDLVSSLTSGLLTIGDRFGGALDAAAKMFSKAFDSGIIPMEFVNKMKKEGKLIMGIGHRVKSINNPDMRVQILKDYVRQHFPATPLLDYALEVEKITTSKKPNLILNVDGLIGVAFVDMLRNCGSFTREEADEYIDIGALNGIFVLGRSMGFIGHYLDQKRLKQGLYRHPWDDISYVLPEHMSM
UniProt Q9H845: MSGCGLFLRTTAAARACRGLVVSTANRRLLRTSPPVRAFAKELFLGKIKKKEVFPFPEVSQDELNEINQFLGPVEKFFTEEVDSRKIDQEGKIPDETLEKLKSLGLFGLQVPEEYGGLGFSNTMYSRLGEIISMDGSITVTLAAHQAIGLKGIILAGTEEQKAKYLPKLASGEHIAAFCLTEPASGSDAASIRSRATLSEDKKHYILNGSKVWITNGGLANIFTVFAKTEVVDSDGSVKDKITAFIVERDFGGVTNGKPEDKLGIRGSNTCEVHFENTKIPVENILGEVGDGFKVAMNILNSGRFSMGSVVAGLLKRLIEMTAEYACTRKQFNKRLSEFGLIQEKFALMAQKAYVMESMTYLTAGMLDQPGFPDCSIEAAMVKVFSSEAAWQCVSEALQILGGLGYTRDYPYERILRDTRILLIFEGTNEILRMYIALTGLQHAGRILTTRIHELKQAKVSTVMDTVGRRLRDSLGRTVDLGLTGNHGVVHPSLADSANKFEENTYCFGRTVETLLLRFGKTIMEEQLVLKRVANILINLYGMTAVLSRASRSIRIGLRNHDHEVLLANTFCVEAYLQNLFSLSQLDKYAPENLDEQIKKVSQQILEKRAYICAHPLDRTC
UniProt Q86V21: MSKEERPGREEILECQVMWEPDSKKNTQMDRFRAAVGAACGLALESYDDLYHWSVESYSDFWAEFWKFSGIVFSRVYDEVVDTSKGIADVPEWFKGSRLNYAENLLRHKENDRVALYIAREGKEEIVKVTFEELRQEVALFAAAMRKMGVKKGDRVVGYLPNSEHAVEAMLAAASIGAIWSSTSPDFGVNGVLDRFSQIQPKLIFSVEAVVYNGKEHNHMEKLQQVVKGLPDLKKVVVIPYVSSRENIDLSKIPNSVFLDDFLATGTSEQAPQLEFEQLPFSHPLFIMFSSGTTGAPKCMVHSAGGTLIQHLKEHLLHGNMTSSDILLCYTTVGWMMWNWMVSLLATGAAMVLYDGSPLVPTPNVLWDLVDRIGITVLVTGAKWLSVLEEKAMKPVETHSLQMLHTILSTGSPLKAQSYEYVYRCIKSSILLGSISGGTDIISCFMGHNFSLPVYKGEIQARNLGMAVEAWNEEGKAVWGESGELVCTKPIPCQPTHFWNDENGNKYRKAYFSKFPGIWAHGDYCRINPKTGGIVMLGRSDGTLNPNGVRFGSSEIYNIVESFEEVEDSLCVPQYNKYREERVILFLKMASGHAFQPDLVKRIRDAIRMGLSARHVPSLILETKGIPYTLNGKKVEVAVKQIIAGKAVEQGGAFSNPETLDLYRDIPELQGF
UniProt O14639: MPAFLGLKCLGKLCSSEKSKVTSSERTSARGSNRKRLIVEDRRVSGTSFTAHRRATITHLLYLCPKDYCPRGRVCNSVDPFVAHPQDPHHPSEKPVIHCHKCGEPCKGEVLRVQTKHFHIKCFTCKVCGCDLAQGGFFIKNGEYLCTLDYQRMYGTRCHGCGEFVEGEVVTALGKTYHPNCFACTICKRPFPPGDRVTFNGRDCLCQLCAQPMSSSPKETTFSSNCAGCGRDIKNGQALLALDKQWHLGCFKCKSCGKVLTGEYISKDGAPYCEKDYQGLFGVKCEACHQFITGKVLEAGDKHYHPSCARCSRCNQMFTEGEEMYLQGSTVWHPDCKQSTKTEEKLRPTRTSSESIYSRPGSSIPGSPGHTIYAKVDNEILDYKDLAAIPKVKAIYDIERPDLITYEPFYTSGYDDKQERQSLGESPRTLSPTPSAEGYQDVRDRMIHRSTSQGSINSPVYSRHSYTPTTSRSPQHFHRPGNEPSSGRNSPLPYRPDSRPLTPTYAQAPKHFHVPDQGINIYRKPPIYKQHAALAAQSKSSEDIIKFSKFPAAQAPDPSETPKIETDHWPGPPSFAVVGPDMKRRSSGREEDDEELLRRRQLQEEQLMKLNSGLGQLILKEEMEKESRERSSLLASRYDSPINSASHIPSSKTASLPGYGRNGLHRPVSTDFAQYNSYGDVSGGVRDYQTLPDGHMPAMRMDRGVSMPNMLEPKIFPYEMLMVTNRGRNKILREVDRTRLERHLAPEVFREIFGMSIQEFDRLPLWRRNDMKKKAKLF
UniProt O75027: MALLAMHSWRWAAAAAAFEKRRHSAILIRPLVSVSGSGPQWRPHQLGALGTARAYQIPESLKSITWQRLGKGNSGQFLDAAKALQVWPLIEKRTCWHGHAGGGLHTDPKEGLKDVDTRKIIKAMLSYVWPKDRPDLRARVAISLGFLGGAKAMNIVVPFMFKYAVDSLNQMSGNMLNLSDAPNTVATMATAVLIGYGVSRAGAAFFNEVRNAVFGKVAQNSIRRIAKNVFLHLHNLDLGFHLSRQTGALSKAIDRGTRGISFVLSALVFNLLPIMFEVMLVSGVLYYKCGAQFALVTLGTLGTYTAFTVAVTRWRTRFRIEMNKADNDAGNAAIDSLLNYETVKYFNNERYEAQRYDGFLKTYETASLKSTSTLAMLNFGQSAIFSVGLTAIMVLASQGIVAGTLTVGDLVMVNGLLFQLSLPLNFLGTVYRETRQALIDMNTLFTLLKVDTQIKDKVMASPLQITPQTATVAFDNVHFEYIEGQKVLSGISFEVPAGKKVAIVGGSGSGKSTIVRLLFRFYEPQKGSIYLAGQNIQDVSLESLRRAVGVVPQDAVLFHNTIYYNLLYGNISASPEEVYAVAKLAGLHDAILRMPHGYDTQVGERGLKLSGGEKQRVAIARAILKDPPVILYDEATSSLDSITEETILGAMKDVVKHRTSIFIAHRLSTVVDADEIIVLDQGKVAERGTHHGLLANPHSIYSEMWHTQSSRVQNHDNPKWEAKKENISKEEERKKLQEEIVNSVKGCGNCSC
UniProt P49748: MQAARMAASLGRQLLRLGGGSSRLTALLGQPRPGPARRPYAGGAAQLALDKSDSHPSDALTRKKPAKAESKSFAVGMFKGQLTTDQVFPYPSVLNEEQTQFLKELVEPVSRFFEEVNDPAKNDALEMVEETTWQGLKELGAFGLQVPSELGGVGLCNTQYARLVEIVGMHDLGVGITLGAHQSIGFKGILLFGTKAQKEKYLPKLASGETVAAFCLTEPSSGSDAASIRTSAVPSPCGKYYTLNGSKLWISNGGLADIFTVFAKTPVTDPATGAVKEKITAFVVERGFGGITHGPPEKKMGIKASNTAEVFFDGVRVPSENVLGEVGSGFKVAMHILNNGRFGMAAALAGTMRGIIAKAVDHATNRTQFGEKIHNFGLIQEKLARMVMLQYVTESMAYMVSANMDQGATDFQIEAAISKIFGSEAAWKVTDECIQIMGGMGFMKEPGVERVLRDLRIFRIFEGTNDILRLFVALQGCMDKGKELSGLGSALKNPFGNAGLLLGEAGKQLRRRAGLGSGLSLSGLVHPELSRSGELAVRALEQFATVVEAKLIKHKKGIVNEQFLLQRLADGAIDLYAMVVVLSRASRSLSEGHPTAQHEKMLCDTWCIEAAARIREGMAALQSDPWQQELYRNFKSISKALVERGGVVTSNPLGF

Legend:
Assay in all cases: log2 fold change, soluble protein after heating vs DMSO (PISA); higher = thermal stabilisation; K562 lysate, 10 uM; active = over 0.2 and 3.5 SD of the protein, either way, in both replicates (recomputed)
[1] = compound: C#Cc1cccc(Nc2ncnc3cc(OCCOC)c(OCCOC)cc23)c1 [erlotinib]
Outline: (§1)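 Log-two fold change in thermal stability relative to solvent controls is reported from duplicates. For each sample, crude K562 extract from dounce-homogenised pellets in PBS pH 7.4 with 1 mM MgCl2, at 1 mg/mL protein, was treated with 10 μM compound for 30 min. Aliquots heated for 3 min across 48°C-58°C were pooled, brought to 0.5% NP-40 at 4°C and cleared at 21,000xg for 90 min. The supernatant was quantified by TMTpro 16plex LC-MS/MS with channel sums equalised.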

[2] = compound: C/C(=N\NC(=O)C1=CC(=CC=C1)S(=O)(=O)N2CCOCC2)/C3=C(C=CC(=C3)Cl)O
Outline: as §1

[3] = compound: C1=CC(=CC=C1C2=NC3=C(N2)C=C(C=C3)C(=O)N)OC4=CC=C(C=C4)Cl
Outline: as §1

[4] = compound: C1=CC2=C(C=CC(=C2)/C=C\3/C(=O)NC(=NCC4=CC=CS4)S3)N=C1
Outline: as §1

[5] = compound: C1=CC2=NC=CN=C2C=C1/C=C/3\C(=O)NC(=O)S3
Outline: as §1

[6] = compound: C1=CC=C(C=C1)C2=NC(=C(N2)C3=CC=NC=C3)C4=CC(=C(C=C4)Cl)O
Outline: as §1

[7] = compound: C1=CC=C2C(=C1)C3=NNC4=CC=CC(=C43)C2=O
Outline: as §1

[8] = compound: C1CCN(C1)C(=O)NC2=CC=CC(=C2)NC3=NC=C(C(=N3)NCCC4=CN=CN4)Br
Outline: as §1

[9] = compound: C1CN(CCC1(CC2=CC=C(C=C2)Cl)N)C3=NC=NC4=C3C=CN4
Outline: as §1

[10] = compound: C1COCCN1CCN2C3=CC=CC=C3N=C2NC(=O)C4=CC(=CC=C4)[N+](=O)[O-] [IRAK-1-4 Inhibitor I]
Outline: as §1

[11] = compound: C=CC(=O)N1CCC[C@@H](n2nc(-c3ccc(Oc4ccccc4)cc3)c3c(N)ncnc32)C1 [ibrutinib]
Outline: as §1

[12] = compound: CC(=O)c1cnc2ccc(-c3cc(Cl)c(O)c(Cl)c3)nc2c1N[C@H]1CC[C@H](CN(C)C)CC1
Outline: as §1

[13] = compound: CC(C)(C)Cn1c(N)nc2ccc(-c3[nH]c(C(C)(C)C)nc3-c3ccc(F)cc3)nc21 [ralimetinib]
Outline: as §1

[14] = compound: CC(C)(O)CC(=O)NCCn1ccc2ncnc(Nc3ccc(Oc4cccc(C(F)(F)F)c4)c(Cl)c3)c21
Outline: as §1

[15] = compound: CC(C)C1=C2N=C(C=C(N2N=C1)NCC3=CC=CC=C3)NCCCCCCN
Outline: as §1

[16] = compound: CC1=C(C(CC(=O)N1)C2=CC=C(C=C2)C(F)(F)F)C(=O)NC3=C(C=C4C(=C3)C=NN4)F
Outline: as §1

[17] = compound: CC1=C(C2=C(C=C1)C(=O)C3=CC=CC=C3N2CCCN)C
Outline: as §1

[18] = compound: CC1=C(C=C(C=C1)NC(=O)C2=CC(=CC=C2)C(C)(C)C#N)NC3=CC4=C(C=C3)N=CN(C4=O)C
Outline: as §1

[19] = compound: CC1=C(C=C(C=C1)NC(=O)C2=CC(=CC=C2)N(C)C)NC(=O)C3=CC=C(C=C3)O
Outline: as §1

[20] = compound: CC1=CC=C(C=C1)SC2=C3C=C(SC3=CN=C2)C(=O)N
Outline: as §1

Target	log2 fold change [1]	log2 fold change [2]	log2 fold change [3]	log2 fold change [4]	log2 fold change [5]	log2 fold change [6]	log2 fold change [7]	log2 fold change [8]	log2 fold change [9]	log2 fold change [10]	log2 fold change [11]	log2 fold change [12]	log2 fold change [13]	log2 fold change [14]	log2 fold change [15]	log2 fold change [16]	log2 fold change [17]	log2 fold change [18]	log2 fold change [19]	log2 fold change [20]
ABCB10 (UniProt Q9NRK6)	inactive: -0.032	inactive: -0.037	inactive: -0.11	inactive: -0.002	inactive: -0.035	inactive: -0.034	inactive: 0.001	inactive: -0.036	inactive: -0.015	inactive: -0.002	inactive: -0.036	inactive: 0.015	inactive: -0.006	inactive: 0.023	inactive: -0.041	inactive: -0.011	inactive: 0.012	inactive: 0.031	inactive: 0.001	inactive: 0.005
ABRAXAS2 (UniProt Q15018)	inactive: -0.019	inactive: 0.056	inactive: -0.056	inactive: -0.03	inactive: 0.003	inactive: 0.014	inactive: 0.06	inactive: 0.01	inactive: -0.014	inactive: 0.016	inactive: -0.001	inactive: 0.029	inactive: 0.023	inactive: 0.034	inactive: 0.008	inactive: 0.022	inactive: -0.01	inactive: 0.007	inactive: 0.004	inactive: 0.029
ABHD17A isoform 2 (UniProt Q96GS6)	inactive: -0.016	inactive: -0.046	inactive: 0.081	inactive: 0.025	inactive: 0.022	inactive: -0.009	inactive: -0.07	inactive: -0.023	inactive: 0.025	inactive: 0.006	inactive: -0.03	inactive: 0.011	inactive: 0.039	inactive: -0.035	inactive: 0.032	inactive: -0.042	inactive: -0.065	inactive: -0.023	inactive: -0.097	inactive: -0.098
ACADM isoform 2 (UniProt P11310)	inactive: -0.088	inactive: 0.049	inactive: -0.034	inactive: 0.23	inactive: 0.085	inactive: 0.101	inactive: -0.032	inactive: -0.032	inactive: -0.003	inactive: -0.007	inactive: 0.151	inactive: 0.026	inactive: -0.015	inactive: -0.047	active: 0.396	inactive: -0.041	inactive: -0.004	inactive: -0.055	inactive: -0.019	inactive: 0.046
ABI1 isoform 9 (UniProt Q8IZP0)	inactive: -0.014	inactive: -0.003	inactive: 0.025	inactive: 0.01	inactive: -0.007	inactive: 0.009	inactive: -0.014	inactive: 0.006	inactive: 0.004	inactive: -0.021	inactive: 0.034	inactive: 0.023	inactive: -0.031	inactive: -0.005	inactive: 0.031	inactive: -0.02	inactive: -0.008	inactive: 0.024	inactive: -0.012	inactive: 0.003
AAGAB (UniProt Q6PD74)	inactive: -0.016	inactive: 0.082	inactive: -0.009	inactive: -0.016	inactive: -0.003	inactive: -0.006	inactive: -0.018	inactive: -0.007	inactive: -0.028	inactive: -0.023	inactive: -0.016	inactive: 0.017	inactive: 0.088	inactive: 0.04	inactive: -0.055	inactive: 0.012	inactive: 0.013	inactive: 0.036	inactive: 0.006	inactive: -0.017
A0A096LPI6, A0A096LPI6	inactive: -0.052	inactive: -0.016	inactive: -0.02	inactive: 0.016	inactive: 0.02	inactive: 0.009	inactive: 0.016	inactive: 0.005	inactive: 0.003	inactive: 0.015	inactive: 0.017	inactive: -0.009	inactive: 0.021	inactive: -0.009	inactive: 0.003	inactive: -0.019	inactive: -0.008	inactive: -0.004	inactive: -0.018	inactive: -0.019
ACBD6 (UniProt Q9BR61)	inactive: 0.013	inactive: -0.059	inactive: 0.029	inactive: 0.024	inactive: -0.032	inactive: -0.014	inactive: -0.075	inactive: -0.044	inactive: -0.01	inactive: 0.019	inactive: 0.007	inactive: 0.038	inactive: 0.012	inactive: -0.039	inactive: 0.002	inactive: 0.034	inactive: 0.001	inactive: 0.062	inactive: 0.027	inactive: -0.057
ABL1 isoform 2 (UniProt P00519)	inactive: 0.026	inactive: -0.005	inactive: -0.013	inactive: 0.026	inactive: -0.027	inactive: 0.033	inactive: -0.022	inactive: -0.035	inactive: 0.015	inactive: -0.01	inactive: 0.157	inactive: 0.077	inactive: 0.019	inactive: 0.024	inactive: -0.017	inactive: -0.014	inactive: -0.01	inactive: 0.048	inactive: 0.011	inactive: -0.043
AAR2 (UniProt Q9Y312)	inactive: 0.033	inactive: 0.002	inactive: -0.003	inactive: -0.027	inactive: 0.002	inactive: -0.029	inactive: -0.008	inactive: -0.021	inactive: -0.012	inactive: 0.028	inactive: 0.024	inactive: -0.005	inactive: -0.007	inactive: -0.033	inactive: -0.008	inactive: -0.005	inactive: -0.022	inactive: -0.021	inactive: 0.012	inactive: 0
ACLY (UniProt P53396)	inactive: -0.006	inactive: 0.037	inactive: -0.018	inactive: -0.013	inactive: -0.011	inactive: -0.016	inactive: -0.018	inactive: 0.002	inactive: 0.019	inactive: -0.01	inactive: -0.002	inactive: 0.003	inactive: 0.001	inactive: -0.011	inactive: 0.02	inactive: -0.02	inactive: 0.014	inactive: -0.014	inactive: -0.012	inactive: 0.054
ACAD9 (UniProt Q9H845)	inactive: -0.031	inactive: 0.008	inactive: -0.01	inactive: 0.003	inactive: -0.003	inactive: 0.01	inactive: -0.013	inactive: 0.011	inactive: 0.031	inactive: 0.044	inactive: 0.007	inactive: -0.027	inactive: -0.011	inactive: 0.026	inactive: -0.024	inactive: 0.019	inactive: -0.019	inactive: 0.036	inactive: -0.008	inactive: 0.033
AACS (UniProt Q86V21)	inactive: 0.037	inactive: -0.106	inactive: 0.024	inactive: -0.042	inactive: -0.057	inactive: 0.039	inactive: -0.053	inactive: -0.039	inactive: -0.009	inactive: -0.009	inactive: -0.024	inactive: -0.015	inactive: 0.06	inactive: -0.046	inactive: -0.014	inactive: 0.02	inactive: -0.027	inactive: -0.04	inactive: 0.056	inactive: 0.008
ABLIM1 (UniProt O14639)	inactive: 0.132	inactive: -0.003	inactive: 0.069	inactive: -0.076	inactive: 0.018	inactive: -0.016	inactive: -0.004	inactive: 0.017	inactive: 0.041	inactive: 0.013	inactive: 0.032	inactive: -0.042	inactive: -0.027	inactive: -0.075	inactive: -0.042	inactive: 0.037	inactive: -0.063	inactive: 0.09	inactive: 0.025	inactive: -0.033
ABCB7 isoform 2 (UniProt O75027)	inactive: -0.008	inactive: 0.014	inactive: 0.074	inactive: -0.022	inactive: -0.051	inactive: 0.079	inactive: 0.024	inactive: -0.002	inactive: -0.015	inactive: -0.054	inactive: -0.135	inactive: 0.062	inactive: -0.051	inactive: -0.071	inactive: -0.067	inactive: -0.002	inactive: 0.004	inactive: -0.019	inactive: 0.001	inactive: 0.006
ACADVL isoform 3 (UniProt P49748)	inactive: -0.066	inactive: -0.024	inactive: 0.026	inactive: 0.025	inactive: -0.007	inactive: -0.045	inactive: -0.053	inactive: -0.039	inactive: -0.002	inactive: 0.004	inactive: 0.014	inactive: 0.006	inactive: 0.018	inactive: -0.066	inactive: 0.095	inactive: -0.01	inactive: -0.012	inactive: -0.043	inactive: -0.014	inactive: 0.007

Fetched one by one from the list above:
Target	log2 fold change [1]	log2 fold change [2]	log2 fold change [3]	log2 fold change [4]	log2 fold change [5]	log2 fold change [6]	log2 fold change [7]	log2 fold change [8]	log2 fold change [9]	log2 fold change [10]	log2 fold change [11]	log2 fold change [12]	log2 fold change [13]	log2 fold change [14]	log2 fold change [15]	log2 fold change [16]	log2 fold change [17]	log2 fold change [18]	log2 fold change [19]	log2 fold change [20]
ACADVL isoform 3 (UniProt P49748)	inactive: -0.066	inactive: -0.024	inactive: 0.026	inactive: 0.025	inactive: -0.007	inactive: -0.045	inactive: -0.053	inactive: -0.039	inactive: -0.002	inactive: 0.004	inactive: 0.014	inactive: 0.006	inactive: 0.018	inactive: -0.066	inactive: 0.095	inactive: -0.01	inactive: -0.012	inactive: -0.043	inactive: -0.014	inactive: 0.007
ABI1 isoform 9 (UniProt Q8IZP0)	inactive: -0.014	inactive: -0.003	inactive: 0.025	inactive: 0.01	inactive: -0.007	inactive: 0.009	inactive: -0.014	inactive: 0.006	inactive: 0.004	inactive: -0.021	inactive: 0.034	inactive: 0.023	inactive: -0.031	inactive: -0.005	inactive: 0.031	inactive: -0.02	inactive: -0.008	inactive: 0.024	inactive: -0.012	inactive: 0.003
